Measurements taken from PubChem BioAssay AID274 (DTP/NCI, 2004).
The list is a part of this screen's results and no random one: it is rich in T/C values a quarter to a half above the control, in often repeated tests (any T/C) and in doses without a T/C. Other doses and runs of a compound stand elsewhere. T/C gives the treated animals as a percentage of the vehicle group. Some doses have a count of surviving animals in place of a T/C: the source files T/C as zero there, which appears to mark a toxic dose or a test without result, not a measured value. Some survivor counts are full or nearly so, which does not show that the dose was tolerated: the source hardly ever lists a survival T/C far under the control, and the zero likely stands for such cases as well. Counts of survivors are from the toxicity check (mostly the fifth day) where no day follows; animals may have died later. Schedule codes are those of the source, read here as Q, the interval in days (D) or hours (H), X, the number of doses. Some entries were tested several times; the results are listed from low to high. For survival time, the PubChem record calls one and a half times the control and up active, and a quarter to a half above the control has no call in these data; cut-offs in other NCI protocols can differ. Some T/C values are followed by the survivors on the day toxicity was checked, most often the fifth; where none is given, no animal had died by that day.

Tested on: BDF1 mice, Lewis lung carcinoma iv, survival T/C
Test: NCI In Vivo Anticancer Drug Screen. Data for tumor model Lewis Lung Carcinoma (intravenous) in B6D2F1 (BDF1) mice
Conditions: T/C endpoint: median survival time, higher T/C = longer survival
Method: The antitumor activity of compounds was measured in mice bearing transplantable tumors. Survival or tumor size were measured and the results are expressed as the measurement made in the treated group (T) divided by the measurement made in the vehicle treated control group (C). The tumor model used in this assay is Lewis Lung Carcinoma (intravenous) in B6D2F1 (BDF1) mice

[1] = dose: 2.0 mg/kg/injection, schedule: Q01DX009 (ip), vehicle: saline
[2] = dose: 400.0 mg/kg/injection, schedule: Q01DX009 (ip), vehicle: saline
[3] = dose: 4.0 mg/kg/injection, schedule: Q01DX009 (ip), vehicle: saline
[4] = dose: 25.0 mg/kg/injection, schedule: Q01DX009 (ip), vehicle: saline with Tween-80
[5] = dose: 50.0 mg/kg/injection, schedule: Q01DX009 (ip), vehicle: saline with Tween-80
[6] = dose: 50.0 mg/kg/injection, schedule: Q01DX009 (ip), vehicle: saline

CC(=O)OCC1OC(n2cnc3c(=S)nc[nH]c32)C(OC(C)=O)C1OC(C)=O (centres undefined)
survivor count (dose: 100.0 mg/kg/injection, schedule: Q01DX009 (ip), vehicle: suspension in saline): 10 of 10
survivor count (dose: 200.0 mg/kg/injection, schedule: Q01DX009 (ip), vehicle: suspension in saline): 10 of 10
survivor count (dose: 400.0 mg/kg/injection, schedule: Q01DX009 (ip), vehicle: suspension in saline): 10 of 10

O=NN(CCCl)C(=O)NC1[C@H](O)CCC[C@@H]1O (some centres undefined)
survivor count (dose: 10.0 mg/kg/injection, schedule: Q01DX009 (ip), vehicle: saline): 10 of 10
survivor count (dose: 20.0 mg/kg/injection, schedule: Q01DX009 (ip), vehicle: saline): 10 of 10

S=c1nc[nH]c2nc[nH]c12
survivor count (dose: 60.0 mg/kg/injection, schedule: Q01DX009 (ip), vehicle: Klucel (hydroxypropylcellulose) (HPC)): 9 of 10 and 10 of 10
survivor count (dose: 120.0 mg/kg/injection, schedule: Q01DX009 (ip), vehicle: Klucel (hydroxypropylcellulose) (HPC)): 10 of 10
survivor count (dose: 240.0 mg/kg/injection, schedule: Q01DX009 (ip), vehicle: Klucel (hydroxypropylcellulose) (HPC)): 10 of 10

O[C@H](CN1CC1)[C@@H](O)CN1CC1
T/C (dose: 0.5 mg/kg/injection, schedule: Q01DX009 (ip), vehicle: saline): 134 % of control
survivor count (dose: 1.0 mg/kg/injection, schedule: Q01DX009 (ip), vehicle: saline): 10 of 10
survivor count [1]: 10 of 10

COC1CC(CC2CCC(C)C(C(C)C(=O)O)O2)OC2(OC(C)(C3CCC(C)(C4OC(C5OC(O)(CO)C(C)CC5C)CC4C)O3)CC2C)C1C (centres undefined)
T/C (dose: 2.5 mg/kg/injection, schedule: Q01DX009 (ip), vehicle: Klucel (hydroxypropylcellulose) (HPC)): 127 % of control

C=CC(=O)NCNC(=O)C=C
survivor count (dose: 200.0 mg/kg/injection, schedule: Q01DX009 (ip), vehicle: saline): 0 of 10 and 6 of 10
survivor count [2]: 0 of 10

NC(=O)c1ccc(N)nc1
T/C [1]: 131 % of control
survivor count [3]: 10 of 10
survivor count (dose: 8.0 mg/kg/injection, schedule: Q01DX009 (ip), vehicle: saline): 10 of 10

O=C1C(=O)c2cccnc2-c2ncccc21
survivor count (dose: 6.25 mg/kg/injection, schedule: Q01DX009 (ip), vehicle: Klucel (hydroxypropylcellulose) (HPC)): 9 of 10
survivor count (dose: 12.5 mg/kg/injection, schedule: Q01DX009 (ip), vehicle: Klucel (hydroxypropylcellulose) (HPC)): 0 of 10

Nc1ncnc2nc[nH]c12
survivor count (dose: 256.0 mg/kg/injection, schedule: Q01DX009 (ip), vehicle: Klucel (hydroxypropylcellulose) (HPC)): 3 of 10
survivor count (dose: 512.0 mg/kg/injection, schedule: Q01DX009 (ip), vehicle: Klucel (hydroxypropylcellulose) (HPC)): 6 of 10

N#CC(=C1SCS1)[N+](=O)[O-]
survivor count (dose: 12.0 mg/kg/injection, schedule: Q01DX009 (ip), vehicle: saline with Tween-80): 9 of 10

[Cl][Hg][Cl]
survivor count (dose: 3.12 mg/kg/injection, schedule: Q01DX009 (ip), vehicle: saline): 6 of 10
survivor count (dose: 6.25 mg/kg/injection, schedule: Q01DX009 (ip), vehicle: saline): 1 of 10
survivor count (dose: 12.5 mg/kg/injection, schedule: Q01DX009 (ip), vehicle: saline): 0 of 10

Cc1cn(C2CC(O)C(CO)O2)c(=O)[nH]c1=O (centres undefined)
T/C [4]: 147 % of control
survivor count (dose: 400.0 mg/kg/injection, schedule: Q01DX009 (ip), vehicle: saline with Tween-80): 10 of 10

NC1=NC(=O)N2CC12 (centres undefined)
survivor count [2]: 5 of 10

COC(=O)c1[nH]c(=O)[nH]c(=O)c1F
survivor count [5]: 10 of 10
survivor count (dose: 100.0 mg/kg/injection, schedule: Q01DX009 (ip), vehicle: saline with Tween-80): 7 of 10
survivor count (dose: 200.0 mg/kg/injection, schedule: Q01DX009 (ip), vehicle: saline with Tween-80): 9 of 10

COc1cc(NCCCCCCCNC(C)C)c2nccc(C)c2c1
survivor count [6]: 6 of 10

c1ccc2c(c1)nnn1c3cnccc3nc21
survivor count [4]: 0 of 10
survivor count [5]: 0 of 10

CCCCCC[C@H]([C@H](C)O)n1cnc2c(N)ncnc21
T/C (dose: 50.0 mg/kg/injection, schedule: Q01DX009 (ip), vehicle: Klucel (hydroxypropylcellulose) (HPC)): 130 % of control

NNC(=S)N/N=C/c1ccccn1
T/C (dose: 25.0 mg/kg/injection, schedule: Q01DX009 (ip), vehicle: saline): 145 % of control
survivor count [6]: 5 of 10

O=C1CN(CN2CCOCC2)C(=O)CN1CN1CCOCC1
survivor count [2]: 3 of 10

CCCCCCCCCCCC(c1ccccc1)[N+](C)(C)Cc1ccccc1 (centres undefined)
survivor count [3]: 1 of 10

O=P1(N(CCCl)CCCl)NCCCO1 (centres undefined)
T/C (dose: 60.0 mg/kg/injection, schedule: Q01DX001 (ip), vehicle: saline, evaluated on day 18): 152 % of control
T/C (dose: 60.0 mg/kg/injection, schedule: Q01DX001 (ip), vehicle: saline, evaluated on day 60): 101 [7 of 8 alive], 129 [6 of 8 alive], 152 % of control [7 of 8 alive]
T/C (dose: 90.0 mg/kg/injection, schedule: Q01DX001 (ip), vehicle: saline, evaluated on day 18): 157 % of control
T/C (dose: 90.0 mg/kg/injection, schedule: Q01DX001 (ip), vehicle: saline, evaluated on day 60): 92 [6 of 8 alive], 157 [7 of 8 alive], 229 % of control [7 of 8 alive]
T/C (dose: 90.0 mg/kg/injection, schedule: Q01DX001 (ip), vehicle: saline, evaluated on day 90): 128, 161, 427 % of control
T/C (dose: 100.0 mg/kg/injection, schedule: Q01DX001 (ip), vehicle: saline): 145 % of control
T/C (dose: 133.0 mg/kg/injection, schedule: Q01DX001 (ip), vehicle: saline, evaluated on day 18): 139 % of control
T/C (dose: 133.0 mg/kg/injection, schedule: Q01DX001 (ip), vehicle: saline, evaluated on day 60): 101 [6 of 8 alive], 139, 276 % of control [7 of 8 alive]
T/C (dose: 133.0 mg/kg/injection, schedule: Q01DX001 (ip), vehicle: saline, evaluated on day 90): 150, 157, 182, 428 % of control
T/C (dose: 156.0 mg/kg/injection, schedule: Q01DX001 (ip), vehicle: saline): 132 % of control
T/C (dose: 200.0 mg/kg/injection, schedule: Q01DX001 (ip), vehicle: saline, evaluated on day 18): 187 % of control
T/C (dose: 200.0 mg/kg/injection, schedule: Q01DX001 (ip), vehicle: saline, evaluated on day 60): 138, 187, 276 % of control [6 of 8 alive]
T/C (dose: 200.0 mg/kg/injection, schedule: Q01DX001 (ip), vehicle: saline, evaluated on day 90): 169 [7 of 8 alive], 171, 427, 428 % of control
survivor count (dose: 200.0 mg/kg/injection, schedule: Q01DX001 (ip), vehicle: saline): 10 of 10
T/C (dose: 300.0 mg/kg/injection, schedule: Q01DX001 (ip), vehicle: saline, evaluated on day 18): 230 % of control
T/C (dose: 300.0 mg/kg/injection, schedule: Q01DX001 (ip), vehicle: saline, evaluated on day 60): 230 % of control [7 of 8 alive]
T/C (dose: 300.0 mg/kg/injection, schedule: Q01DX001 (ip), vehicle: saline, evaluated on day 90): 109, 133, 180 [7 of 8 alive], 242 % of control
survivor count (dose: 300.0 mg/kg/injection, schedule: Q01DX001 (ip), vehicle: saline): 5 of 8 and 7 of 8
T/C (dose: 300.0 mg/kg/injection, schedule: Q10DX002 (ip), vehicle: saline): 138 % of control
survivor count (dose: 312.0 mg/kg/injection, schedule: Q01DX001 (ip), vehicle: saline): 6 of 10
survivor count (dose: 400.0 mg/kg/injection, schedule: Q01DX001 (ip), vehicle: saline): 9 of 10
survivor count (dose: 450.0 mg/kg/injection, schedule: Q01DX001 (ip), vehicle: saline): 1 of 8, 4 of 8, 5 of 8
survivor count (dose: 624.0 mg/kg/injection, schedule: Q01DX001 (ip), vehicle: saline): 1 of 10

O=P(O)(NCCCl)NCCCl
survivor count (dose: 200.0 mg/kg/injection, schedule: Q01DX001 (ip), vehicle: saline with Tween-80): 10 of 10
survivor count (dose: 400.0 mg/kg/injection, schedule: Q01DX001 (ip), vehicle: saline with Tween-80): 4 of 10
